The list shows a part of the results.
Test system: T1, CTL2-GFP (C. trachomatis L2/434/Bu, GFP-expressing)
T1 construct: L2/434/Bu, GFP-expressing
Design: species or system HeLa; Intracellular C. trachomatis growth in HeLa cells, bulk GFP fluorescence relative to DMSO
Conditions: bulk GFP, single well; 28.5 h, 10 µM; inhibitor

| Structure (SMILES) | % of control remaining [%] |
| --- | --- |
| Cc1ccc(NC(=O)Nc2cc(S(N)(=O)=O)ccc2C)cc1 [CBK093428] | 96.5145 |
| Cc1onc(-c2ccccc2Cl)c1C(=O)N(C)C [CBK160325] | 195.576 |
| O=C(Nc1ccccc1-n1cnnn1)c1ccccc1Cl [CBK287994] | 132.62 |
| N#CCCN(C(=O)NCCCN1CCCC1=O)C1CCCCC1 [CBK156379] | 170.589 |
| CS(=O)(=O)N1CCCC(C(=O)Nc2nccs2)C1 (stereo not shown) [CBK287834] | 119.544 |
| O=C(Nc1ccc(C(=O)O)c(O)c1)c1ccc(Br)o1 [CBK270053] | 158.418 |
| CCOc1ccccc1C(=O)Nc1cc(C)c2c(=O)oc3ccccc3c2n1 [CBK291240] | 143.036 |
| Cc1nn(C)cc1S(=O)(=O)Nc1cccc(-c2ccc(F)cc2)c1 [CBK282788] | 101.622 |
| O=C1c2ccccc2C(=O)N1CC1c2ccccc2CCN1S(=O)(=O)c1cccc2nsnc12 (stereo not shown) [CBK261133] | 114.82 |
| O=[N+]([O-])c1ccccc1S(=O)(=O)N1CCN(S(=O)(=O)c2ccc(F)cc2)CC1 [CBK264236] | 110.467 |
| O=C(C1CC1)N1C[C@@H](c2ccccc2)[C@H](c2cc(C(F)F)[nH]n2)C1 [CBK284791] | 157.72 |
| CCC(NC1CCc2nc(COC)nn2C1)c1ccccc1O (stereo not shown) [CBK305132] | 116.938 |
| O=C(Cc1cc(F)c(F)c(F)c1)Nc1ccc2[nH]ccc2c1 [CBK159684] | 124.554 |
| CC1CCc2c(sc(NC(=O)CCC(=O)O)c2C(=O)N2CCOCC2)C1 (stereo not shown) [CBK307550] | 151.828 |
| O=C(c1cccs1)N1C[C@H](c2ccc(F)cc2)[C@H]2CN(Cc3ccc(F)cc3)CC[C@H]21 [CBK285545] | 122.668 |
| CC(C)c1nc(NCc2nnc(C(C)C)n2C)nc(N(C)C)n1 [CBK306402] | 119.147 |
| Cc1nn(CC(=O)N(C)C(C)c2ccncn2)c(=O)c2ccccc12 (stereo not shown) [CBK307669] | 124.844 |
| O=C1COc2ccccc2C/C=C/CC2(CCCN(C(=O)Cn3ccnc3)C2)CN1 (stereo not shown) [CBK292050] | 96.1689 |
| OCCc1ccc(Nc2cc(-c3ccsc3)ncn2)cc1 [CBK090769] | 183.665 |
| COc1cc(C2N3CC4(C)CN2CC(C)(C3)C4=O)ccc1O (stereo not shown) [CBK261453] | 95.9141 |
| CCN1CCN(CCOc2c(OC)cccc2OC)CC1 [CBK267375G] | 169.761 |
| COc1ccc([C@@]23CC[C@@H](NC(=O)c4ccc5occc5c4)C[C@@H]2N(C)CC3)cc1OC [CBK074253T] | 106.569 |
